# Some of the results follow.
# Key:
# Experiment in all cases: glycan array binding signal (z-score within array); higher = stronger binding
# Details in all cases: glycan notation: IUPAC condensed, linker removed
# [1] = target: GlcNAc(b1-4)GlcNAc(b1-4)GlcNAc(b1-4)GlcNAc(b1-4)GlcNAc(b1-4)GlcNAc
# In short: (§1)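 From the Consortium for Functional Glycomics database, 3228 arrays were curated, keeping only those whose protein sequence was available. Binding is given as a within-array Z-score averaged across arrays sharing a protein sequence and across linkers. Negative Z-scores can be read as non-binding.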
# [2] = target: GlcNAc(b1-4)[GlcNAc(b1-6)]GalNAc
# In short: as §1
# [3] = target: GlcNAc(b1-6)Gal(b1-4)GlcNAc
# In short: as §1
# [4] = target: GlcNAc(b1-6)GalNAc
# In short: as §1
# [5] = target: GlcNAc6S(b1-3)Gal(b1-4)GlcNAc
# In short: as §1
# [6] = target: Kdn(a2-3)Gal(b1-3)GalNAc
# In short: as §1
# [7] = target: Kdn(a2-3)Gal(b1-3)GlcNAc
# In short: as §1
# [8] = target: Kdn(a2-3)Gal(b1-4)Glc
# In short: as §1
# [9] = target: Kdn(a2-3)Gal(b1-4)GlcNAc
# In short: as §1
# [10] = target: Kdn(a2-3)Gal(b1-4)[Fuc(a1-3)]GlcNAc
# In short: as §1
# [11] = target: Kdn(a2-6)Gal(b1-4)GlcNAc
# In short: as §1
# [12] = target: Man(a1-2)Man(a1-2)Man(a1-3)Man
# In short: as §1
# [13] = target: Man(a1-2)Man(a1-2)Man(a1-6)[Man(a1-3)]Man
# In short: as §1
# [14] = target: Man(a1-2)Man(a1-3)Man
# In short: as §1
# [15] = target: Man(a1-2)Man(a1-3)[Man(a1-2)Man(a1-6)]Man
# In short: as §1
# [16] = target: Man(a1-2)Man(a1-3)[Man(a1-2)Man(a1-6)]Man(a1-6)[Man(a1-2)Man(a1-2)Man(a1-3)]Man
# In short: as §1
# [17] = target: Man(a1-2)Man(a1-3)[Man(a1-2)Man(a1-6)]Man(a1-6)[Man(a1-2)Man(a1-2)Man(a1-3)]Man(b1-4)GlcNAc(b1-4)GlcNAc
# In short: as §1
# [18] = target: Man(a1-2)Man(a1-3)[Man(a1-6)]Man(a1-6)[Man(a1-2)Man(a1-3)]Man(b1-4)GlcNAc(b1-4)GlcNAc
# In short: as §1
# [19] = target: Man(a1-2)Man(a1-6)[Man(a1-3)]Man(a1-6)[Man(a1-2)Man(a1-2)Man(a1-3)]Man
# In short: as §1
# [20] = target: Man(a1-2)Man(a1-6)[Man(a1-3)]Man(a1-6)[Man(a1-2)Man(a1-2)Man(a1-3)]Man(b1-4)GlcNAc(b1-4)GlcNAc
# In short: as §1
# [21] = target: Man(a1-3)[Man(a1-6)]Man
# In short: as §1
# [22] = target: Man(a1-3)[Man(a1-6)]Man(a1-6)[Man(a1-2)Man(a1-3)]Man(b1-4)GlcNAc(b1-4)GlcNAc
# In short: as §1
# [23] = target: Man(a1-3)[Man(a1-6)]Man(a1-6)[Man(a1-3)]Man
# In short: as §1
# [24] = target: Man(a1-3)[Man(a1-6)]Man(a1-6)[Man(a1-3)]Man(b1-4)GlcNAc(b1-4)GlcNAc
# In short: as §1
# [25] = target: Man(a1-3)[Man(a1-6)]Man(b1-4)GlcNAc(b1-4)GlcNAc
# In short: as §1
# [26] = target: Man(a1-3)[Man(a1-6)]Man(b1-4)GlcNAc(b1-4)[Fuc(a1-6)]GlcNAc
# In short: as §1
# [27] = target: Man(a1-6)Man
# In short: as §1
# [28] = target: Man(b1-4)GlcNAc
# In short: as §1
# [29] = target: MurNAc(b1-4)GlcNAc
# In short: as §1
# [30] = target: Neu5Ac(a2-3)Gal
# In short: as §1
# [31] = target: Neu5Ac(a2-3)Gal(b1-3)GalNAc
# In short: as §1
# [32] = target: Neu5Ac(a2-3)Gal(b1-3)GalNAc(b1-3)Gal(a1-4)Gal(b1-4)Glc
# In short: as §1
# [33] = target: Neu5Ac(a2-3)Gal(b1-3)GalNAc(b1-4)Gal(b1-4)Glc
# In short: as §1
# [34] = target: Neu5Ac(a2-3)Gal(b1-3)GalNAc(b1-4)[Neu5Ac(a2-3)]Gal(b1-4)Glc
# In short: as §1
# [35] = target: Neu5Ac(a2-3)Gal(b1-3)GalNAc(b1-4)[Neu5Ac(a2-8)Neu5Ac(a2-3)]Gal(b1-4)Glc
# In short: as §1
# [36] = target: Neu5Ac(a2-3)Gal(b1-3)GalNAc6S
# In short: as §1
# [37] = target: Neu5Ac(a2-3)Gal(b1-3)GlcNAc
# In short: as §1
# [38] = target: Neu5Ac(a2-3)Gal(b1-3)GlcNAc(b1-2)Man
# In short: as §1
# [39] = target: Neu5Ac(a2-3)Gal(b1-3)GlcNAc(b1-2)Man(a1-3)[GlcNAc(b1-4)][Neu5Ac(a2-3)Gal(b1-3)GlcNAc(b1-2)Man(a1-6)]Man(b1-4)GlcNAc(b1-4)GlcNAc
# In short: as §1
# [40] = target: Neu5Ac(a2-3)Gal(b1-3)GlcNAc(b1-2)Man(a1-3)[Neu5Ac(a2-3)Gal(b1-3)GlcNAc(b1-2)Man(a1-6)]Man(b1-4)GlcNAc(b1-4)GlcNAc
# In short: as §1
# [41] = target: Neu5Ac(a2-3)Gal(b1-3)GlcNAc(b1-2)[Neu5Ac(a2-3)Gal(b1-3)GlcNAc(b1-4)]Man(a1-6)[Neu5Ac(a2-3)Gal(b1-3)GlcNAc(b1-2)Man(a1-3)]Man(b1-4)GlcNAc(b1-4)GlcNAc
# In short: as §1
# [42] = target: Neu5Ac(a2-3)Gal(b1-3)GlcNAc(b1-3)Gal(b1-3)GlcNAc
# In short: as §1
# [43] = target: Neu5Ac(a2-3)Gal(b1-3)GlcNAc(b1-3)Gal(b1-4)GlcNAc
# In short: as §1
# [44] = target: Neu5Ac(a2-3)Gal(b1-3)GlcNAc(b1-3)GalNAc
# In short: as §1
# [45] = target: Neu5Ac(a2-3)Gal(b1-3)GlcNAc(b1-6)GalNAc
# In short: as §1
binder,measurement,setting,value
Agalectin (Anopheles gambiae) (protein) MSNRPFTAKFPRYPENGDEVFIRGKLKDDAKSFSVNFCLPRPAQVAEHQTPPYIALHFKTIYDERDDTSRVVLNWKNLQWQQEEVLDNYWHVDRSQTFRVVFRLHEDCIKVFVNSVDHPPDYQFPVQLPLDQIESIELWDDVEHVEEISFRYDNGNSY,glycan array binding signal (z-score),[1],0.058
same,glycan array binding signal (z-score),[2],0.094
same,glycan array binding signal (z-score),[3],-0.635
same,glycan array binding signal (z-score),[4],0.19
same,glycan array binding signal (z-score),[5],0.391
same,glycan array binding signal (z-score),[6],0.147
same,glycan array binding signal (z-score),[7],-0.525
same,glycan array binding signal (z-score),[8],0.035
same,glycan array binding signal (z-score),[9],0.262
same,glycan array binding signal (z-score),[10],2.8
same,glycan array binding signal (z-score),[11],-0.979
same,glycan array binding signal (z-score),[12],-0.834
same,glycan array binding signal (z-score),[13],2.33
same,glycan array binding signal (z-score),[14],0.1
same,glycan array binding signal (z-score),[15],-1.28
same,glycan array binding signal (z-score),[16],-0.538
same,glycan array binding signal (z-score),[17],-0.504
same,glycan array binding signal (z-score),[18],-1.04
same,glycan array binding signal (z-score),[19],-0.223
same,glycan array binding signal (z-score),[20],-0.912
same,glycan array binding signal (z-score),[21],0.856
same,glycan array binding signal (z-score),[22],0.128
same,glycan array binding signal (z-score),[23],-0.218
same,glycan array binding signal (z-score),[24],-1.16
same,glycan array binding signal (z-score),[25],-0.493
same,glycan array binding signal (z-score),[26],0.215
same,glycan array binding signal (z-score),[27],0.805
same,glycan array binding signal (z-score),[28],-1.01
same,glycan array binding signal (z-score),[29],-0.747
same,glycan array binding signal (z-score),[30],0.334
same,glycan array binding signal (z-score),[31],-0.488
same,glycan array binding signal (z-score),[32],0.518
same,glycan array binding signal (z-score),[33],-0.568
same,glycan array binding signal (z-score),[34],-0.195
same,glycan array binding signal (z-score),[35],-0.463
same,glycan array binding signal (z-score),[36],0.301
same,glycan array binding signal (z-score),[37],0.384
same,glycan array binding signal (z-score),[38],-1.04
same,glycan array binding signal (z-score),[39],-0.29
same,glycan array binding signal (z-score),[40],-0.342
same,glycan array binding signal (z-score),[41],0.945
same,glycan array binding signal (z-score),[42],-1.41
same,glycan array binding signal (z-score),[43],0.145
same,glycan array binding signal (z-score),[44],-0.42
same,glycan array binding signal (z-score),[45],0.07

# An excerpt of these results, tab-delimited:
binder	measurement	setting	value
Agalectin (Anopheles gambiae) (protein) MSNRPFTAKFPRYPENGDEVFIRGKLKDDAKSFSVNFCLPRPAQVAEHQTPPYIALHFKTIYDERDDTSRVVLNWKNLQWQQEEVLDNYWHVDRSQTFRVVFRLHEDCIKVFVNSVDHPPDYQFPVQLPLDQIESIELWDDVEHVEEISFRYDNGNSY	glycan array binding signal (z-score)	[22]	0.128
same	glycan array binding signal (z-score)	[23]	-0.218
same	glycan array binding signal (z-score)	[24]	-1.16
same	glycan array binding signal (z-score)	[25]	-0.493
